Assay results taken from paper PMC8626996.
These are yes or no findings as the source states them, for the method shown. In cells and extracts the contact can be indirect. Some results given as binding are weak or reduced against the parent protein; the word gives no strength.

Chains of the proteins cited; added tags and fusions are not shown. Lines headed by an entry give the natural chain unless they say otherwise; changes in a name come on top.
UniProt Q96PU5: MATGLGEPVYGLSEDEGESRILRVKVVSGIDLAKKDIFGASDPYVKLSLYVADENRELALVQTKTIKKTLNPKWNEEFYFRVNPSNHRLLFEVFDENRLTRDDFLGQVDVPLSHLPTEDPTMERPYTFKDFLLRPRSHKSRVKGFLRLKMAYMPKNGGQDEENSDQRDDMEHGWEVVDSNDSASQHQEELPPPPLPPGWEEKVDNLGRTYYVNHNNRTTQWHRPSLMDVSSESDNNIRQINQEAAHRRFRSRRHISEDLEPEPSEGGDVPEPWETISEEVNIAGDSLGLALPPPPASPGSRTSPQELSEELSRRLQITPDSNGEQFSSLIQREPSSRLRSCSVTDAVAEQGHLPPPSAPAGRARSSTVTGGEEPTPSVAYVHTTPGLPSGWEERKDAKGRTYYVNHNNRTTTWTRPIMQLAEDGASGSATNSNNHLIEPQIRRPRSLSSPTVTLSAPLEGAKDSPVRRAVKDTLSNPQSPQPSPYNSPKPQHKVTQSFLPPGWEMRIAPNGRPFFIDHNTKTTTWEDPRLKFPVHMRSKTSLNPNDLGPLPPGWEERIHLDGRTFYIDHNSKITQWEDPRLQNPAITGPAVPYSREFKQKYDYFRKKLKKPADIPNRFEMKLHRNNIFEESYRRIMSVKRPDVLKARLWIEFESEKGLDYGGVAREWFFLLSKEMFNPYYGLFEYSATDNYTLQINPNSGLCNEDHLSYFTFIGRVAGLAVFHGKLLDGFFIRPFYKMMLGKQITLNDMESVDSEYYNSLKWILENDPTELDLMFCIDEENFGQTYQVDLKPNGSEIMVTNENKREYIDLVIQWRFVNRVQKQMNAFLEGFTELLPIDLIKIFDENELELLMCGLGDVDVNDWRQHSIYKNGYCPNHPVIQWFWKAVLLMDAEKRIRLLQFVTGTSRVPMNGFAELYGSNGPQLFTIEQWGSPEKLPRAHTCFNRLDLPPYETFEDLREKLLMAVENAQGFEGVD
UniProt Q9NPD8: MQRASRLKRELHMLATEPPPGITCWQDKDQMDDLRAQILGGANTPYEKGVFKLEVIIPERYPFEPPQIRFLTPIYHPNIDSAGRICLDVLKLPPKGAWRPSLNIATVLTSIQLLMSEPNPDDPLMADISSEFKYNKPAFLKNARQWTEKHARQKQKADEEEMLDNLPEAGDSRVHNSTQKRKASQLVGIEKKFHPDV

Biological target: HA-NEDD4L (UniProt Q96PU5)
Assay: co-IP; H1299 cells transiently transfected with HA-NEDD4L; lysed in 20 mM Tris-HCl pH 7.5, 150 mM NaCl, 1% NP-40, 0.1% SDS, 0.5% sodium deoxycholate, 1 mM EDTA; immunoprecipitated with bead-conjugated HA antibody, 4 h at 4 °C; immunoblot for endogenous UBE2T

Substance: Ubiquitin-conjugating enzyme E2T (UBE2T), endogenous (from UniProt Q9NPD8 1-197)
- binding: binds
